# Assay results: patent US20250326816A1 (KOREA UNIVERSITY RESEARCH AND BUSINESS FOUNDATION, published 2025)
# Positions count from the first letter of the chain named. Names may count otherwise. These are yes or no findings as the source states them, for the method shown. Some binding calls cover weakened binding; strength is not graded here. Sequences can lack the tags named with a protein.
# T1: ICOS-L variant Y48 displayed on yeast (ICOS-L-Aga2-FLAG format) (Homo sapiens (Human)) (UniProt O75144)
# T1 sequence: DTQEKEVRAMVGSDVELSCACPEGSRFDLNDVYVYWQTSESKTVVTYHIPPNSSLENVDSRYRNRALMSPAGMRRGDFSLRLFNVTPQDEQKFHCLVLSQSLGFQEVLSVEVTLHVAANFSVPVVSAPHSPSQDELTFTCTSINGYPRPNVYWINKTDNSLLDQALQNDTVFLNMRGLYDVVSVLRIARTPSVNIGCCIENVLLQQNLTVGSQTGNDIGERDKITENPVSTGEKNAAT
# T2: ICOS-L variant Y35 displayed on yeast (ICOS-L-Aga2-FLAG format) (Homo sapiens (Human)) (UniProt O75144)
# T2 sequence: T1 sequence with E4D, R74L
# T3: A184
# T3 sequence: T1 sequence with P51Q, N52H, N57Y, R74L, Q100P
# T4: ICOS-L variant Y20 displayed on yeast (ICOS-L-Aga2-FLAG format) (Homo sapiens (Human)) (UniProt O75144)
# T4 sequence: T1 sequence with P51Q, N52S, R74L, K234R
# T5: ICOS-L variant Y13 displayed on yeast (ICOS-L-Aga2-FLAG format) (Homo sapiens (Human)) (UniProt O75144)
# T5 sequence: T1 sequence with P51H, S54N, R74L, S130C
# T6: ICOS-L variant Y8 displayed on yeast (ICOS-L-Aga2-FLAG format) (Homo sapiens (Human)) (UniProt O75144)
# T6 sequence: T1 sequence with N57H, R74L
# T7: ICOS-L A184 variant fused to antibody Fc domain (LALAPG) (human) (UniProt O75144)
# T7 sequence: T1 sequence with P51Q, N52H, N57Y, R74L, Q100P
# B1: Dimeric human ICOS (ICOS-Fc) (Fc fusion, UniProt Q9Y6W8 21-140, looked up)
# chain: EINGSANYEMFIFHNGGVQILCKYPDIVQQFKMQLLKGGQILCDLTKTKGSGNTVSIKSLKFCHSQLSNNSVSFFLYNLDHSHANYYFCNLSIFDPPPFKVTLTGGYLHIYESQLCCQLK
# notes: range 21-140; Fc at the C-terminus of ICOS to induce dimerization; Labeled with Alexa488 when used as probe in the flow cytometry on yeast; also called ICOS-Fc dimer protein; ICOS dimer protein; not shown: GS linker of glycine and serine; Fc region (domain) of human IgG antibody
# B2: ICOS-L variant Y8 (ligand)
# chain: T1 sequence with N57H, R74L
# B3: ICOS-L variant Y8_H57N (ligand)
# chain: T1 sequence with R74L
# notes: H57 of Y8 put back to N
# B4: ICOS-L variant Y8_P51Q (ligand)
# chain: T1 sequence with P51Q, N57H, R74L
# notes: P51 of Y8 put back to Q; keeps N57H only
# B5: ICOS-L variant Y13 (ligand, not shown: small tags and cut ends)
# chain: T1 sequence with P51H, S54N, R74L, S130C
# B6: ICOS-L variant Y20 (ligand, not shown: small tags and cut ends)
# chain: T1 sequence with P51Q, N52S, R74L, K234R
# B7: ICOS-L variant Y35 (ligand, not shown: small tags and cut ends)
# chain: T1 sequence with E4D, R74L
# B8: ICOS-L variant Y48 (ligand, not shown: small tags and cut ends)
# chain: T1 sequence
# B9: ICOS monomer protein (ICOS E21-H129) (receptor, human, UniProt Q9Y6W8 21-129, looked up)
# chain: EINGSANYEMFIFHNGGVQILCKYPDIVQQFKMQLLKGGQILCDLTKTKGSGNTVSIKSLKFCHSQLSNNSVSFFLYNLDHSHANYYFCNLSIFDPPPFKVTLTGGYLH
# notes: range 21-129; also called wild-type ICOS
# B10: ICOS-L A184 variant fused to antibody Fc domain (LALAPG) (Fc fusion, not shown: a dimerising Fc or GST; small tags and cut ends)
# chain: T1 sequence with P51Q, N52H, N57Y, R74L, Q100P
# B11: ICOS-L variant Y8 fused to antibody Fc domain (LALAPG) (Fc fusion, not shown: a dimerising Fc or GST; small tags and cut ends)
# chain: T1 sequence with N57H, R74L
# B12: ICOS-L variant Y8_H57N fused to antibody Fc domain (LALAPG) (Fc fusion, not shown: a dimerising Fc or GST; small tags and cut ends)
# chain: T1 sequence with R74L
# B13: ICOS-L variant Y8 displayed on yeast (ICOS-L-Aga2-FLAG format) (ligand, not shown: large carriers; small tags and cut ends)
# chain: T1 sequence with N57H, R74L
# B14: ICOS-L variant Y13 displayed on yeast (ICOS-L-Aga2-FLAG format) (ligand, not shown: large carriers; small tags and cut ends)
# chain: T1 sequence with P51H, S54N, R74L, S130C
# B15: ICOS-L variant Y20 displayed on yeast (ICOS-L-Aga2-FLAG format) (ligand, not shown: large carriers; small tags and cut ends)
# chain: T1 sequence with P51Q, N52S, R74L, K234R
# B16: ICOS-L variant Y35 displayed on yeast (ICOS-L-Aga2-FLAG format) (ligand, not shown: large carriers; small tags and cut ends)
# chain: T1 sequence with E4D, R74L
# B17: ICOS-L variant Y48 displayed on yeast (ICOS-L-Aga2-FLAG format) (ligand, not shown: large carriers; small tags and cut ends)
# chain: T1 sequence
# Legend:
# [1] = target: T1, ICOS-L variant Y48 displayed on yeast (ICOS-L-Aga2-FLAG format) (Homo sapiens (Human)); assay: flow cytometry of yeast displaying the ICOS-L variant, ICOS-Fc-Alexa488 at 67.7 nM
# [2] = target: T2, ICOS-L variant Y35 displayed on yeast (ICOS-L-Aga2-FLAG format) (Homo sapiens (Human)); assay: as above
# A184 = target: T3, A184; assay: as above
# [3] = target: T4, ICOS-L variant Y20 displayed on yeast (ICOS-L-Aga2-FLAG format) (Homo sapiens (Human)); assay: as above
# [4] = target: T5, ICOS-L variant Y13 displayed on yeast (ICOS-L-Aga2-FLAG format) (Homo sapiens (Human)); assay: as above
# [5] = target: T6, ICOS-L variant Y8 displayed on yeast (ICOS-L-Aga2-FLAG format) (Homo sapiens (Human)); assay: as above
# [6] = target: B1; assay: bio-layer interferometry (Octet R8), ICOS-Fc captured on Protein A biosensor, 600 s association and 600 s dissociation
# [7] = target: B1; assay: ELISA, ICOS-Fc coated at 4 ug/ml, ICOS-L variant titrated, anti-His-HRP
# Experimental: (§1) After washing four times, 50 μl of an anti-His-HRP conjugate was added and reacted at room temperature for 1 hour, and then washed four times. Thereafter, 50 μl of a 1-Step Ultra TMB-ELISA substrate solution (Thermo Fisher Scientific, 34028) was added to develop color, and then added with 50 μl each of 2 M H₂SO₄ to terminate the reaction, and then analyzed using an Epoch microplate spectrophotometer (BioTek).
# [8] = target: B1; assay: ELISA, ICOS-Fc coated at 4 ug/ml, ICOS-L variant titrated, anti-His-HRP (x axis printed as PD-L1 CO…ON (nM))
# Experimental: as §1
# [9] = target: B1; assay: ELISA, ICOS-Fc coated, variants serially diluted, anti-His-HRP
# [10] = target: T7, ICOS-L A184 variant fused to antibody Fc domain (LALAPG) (human); assay: ELISA, ICOS-L-Fc coated at 4 ug/ml, His-tagged ICOS monomer titrated, anti-His-HRP
# [11] = substrate: T8, ICOS monomer protein (ICOS E21-H129) (human) (UniProt Q9Y6W8); assay: ELISA, ICOS-L-Fc coated, wild-type ICOS serially diluted, anti-His-HRP
# T8 sequence (looked up): B9 chain
# [12] = target: B1; assay: flow cytometry, yeast display, ICOS-Fc-Alexa488 67.7 nM
binder,measurement,setting,value
B1,binding,[1],binds
same,binding,[2],binds
same,binding,A184,binds
same,binding,[3],binds
same,binding,[4],binds
same,binding,[5],binds
B2,binding,[6],binds
same,binding,[7],binds
same,binding,[8],binds
same,binding,[9],binds
B3,binding,[6],binds
same,binding,[7],binds
same,binding,[9],binds
B4,binding,[6],binds
same,binding,[7],binds
same,binding,[9],binds
B5,binding,[8],binds
same,binding,[9],binds
B6,binding,[8],binds
same,binding,[9],binds
B7,binding,[8],binds
same,binding,[9],binds
B8,binding,[8],binds
same,binding,[9],binds
B9,binding,[10],binds
B10,binding,[11],binds
B11,binding,[11],binds
B12,binding,[11],binds
B13,binding,[12],binds
B14,binding,[12],binds
B15,binding,[12],binds
B16,binding,[12],binds
B17,binding,[12],binds
